Data: PubChem BioAssay AID2283131 (EPA ToxCast)
This list was built around the results that the source calls inconclusive (neither active nor inactive); the mix of calls is not that of the screen. Rule for the calls: active = hit-call score of the fitted dose curve at least 0.9, where 1 is the maximum; inconclusive = response in the unintended direction; inactive = score below 0.9. Potencies of inconclusive entries are doubtful fits and often do not repeat.

Protein sequences, listed by entry. Tags and fused reporters are not part of them. Lines headed by an entry give the natural chain unless they say otherwise; changes in a name come on top.
UniProt Q06187: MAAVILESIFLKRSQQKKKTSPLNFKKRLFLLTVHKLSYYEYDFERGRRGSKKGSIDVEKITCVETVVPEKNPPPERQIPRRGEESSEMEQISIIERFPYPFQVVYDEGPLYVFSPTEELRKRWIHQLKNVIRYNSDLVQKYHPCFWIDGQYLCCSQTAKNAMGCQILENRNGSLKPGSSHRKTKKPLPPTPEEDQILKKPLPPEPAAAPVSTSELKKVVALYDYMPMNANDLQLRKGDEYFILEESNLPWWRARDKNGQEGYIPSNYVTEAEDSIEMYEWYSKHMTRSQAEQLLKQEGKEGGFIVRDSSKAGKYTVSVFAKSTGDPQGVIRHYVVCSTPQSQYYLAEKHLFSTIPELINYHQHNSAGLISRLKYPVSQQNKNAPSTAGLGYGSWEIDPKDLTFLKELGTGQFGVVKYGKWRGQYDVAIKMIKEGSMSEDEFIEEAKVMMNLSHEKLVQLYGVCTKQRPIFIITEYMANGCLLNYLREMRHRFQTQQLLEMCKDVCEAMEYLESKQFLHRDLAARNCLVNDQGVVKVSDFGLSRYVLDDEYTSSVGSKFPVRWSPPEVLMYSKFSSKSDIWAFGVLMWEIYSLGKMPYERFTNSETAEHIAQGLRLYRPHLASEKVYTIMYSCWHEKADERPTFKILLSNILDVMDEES

Molecular target: human Bruton's Tyrosine Kinase (BTK), BTK (gene 695) (UniProt Q06187)
Experiment: NVS_ENZ_hBTK: NovaScreen (NVS) Enzymatic Assay for human Bruton's Tyrosine Kinase (BTK)
Description: NVS_ENZ_hBTK is a biochemical, single-readout assay that uses extracted gene-proteins in a cell-free assay. Measurements were taken 1 hour after chemical dosing in a 96-well plate.NVS_ENZ_hBTK is one of one assay component(s) measured or calculated from the NVS_ENZ_hBTK assay. It is designed to make measurements of enzyme activity, a form of enzyme reporter, as detected with fluorescence intensity signals by Fluorescence and electrophoretic mobility shift technology.Data from the assay component NVS_ENZ_hBTK was analyzed into 1 assay endpoint. This assay endpoint, NVS_ENZ_hBTK, was analyzed in the positive analysis fitting direction relative to DMSO as the negative control and baseline of activity. Using a type of enzyme reporter, loss-of-signal activity can be used to understand changes in the enzymatic activity as they relate to the gene BTK. Furthermore, this assay endpoint can be referred to as a primary readout, because this assay has produced multiple assay endpoints where this one serves a enzymatic activity function. To generalize the intended target to other relatable targets, this assay endpoint is annotated to the kinase intended target family, where the subfamily is non-receptor tyrosine kinase. […]

With S=C(S)NCCNC(=S)S.[Mn+2].[S-]C([S-])=NCCN=C([S-])[S-].[Zn+2] the AC50 was inconclusive: 661 nM.
